The values are deposited in ChEMBL (CHEMBL3988442, “University of Dundee, Small-Polar-MMV Screening Library” (2021)).

Amino acid sequences for entries named in this document (tags omitted). Residues count along the entry.
UniProt P9WPC5, whole entry: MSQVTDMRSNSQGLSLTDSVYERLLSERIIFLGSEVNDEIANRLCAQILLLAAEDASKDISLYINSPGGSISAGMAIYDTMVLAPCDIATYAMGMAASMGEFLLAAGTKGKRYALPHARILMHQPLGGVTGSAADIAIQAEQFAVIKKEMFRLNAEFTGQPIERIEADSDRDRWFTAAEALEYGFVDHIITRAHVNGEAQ
UniProt P9WPC3, whole entry partner: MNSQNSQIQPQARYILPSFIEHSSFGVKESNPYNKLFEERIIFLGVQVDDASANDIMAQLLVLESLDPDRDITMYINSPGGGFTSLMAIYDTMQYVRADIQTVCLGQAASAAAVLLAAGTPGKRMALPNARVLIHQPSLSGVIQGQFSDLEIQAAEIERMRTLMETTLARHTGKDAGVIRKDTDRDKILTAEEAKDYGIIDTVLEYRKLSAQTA
UniProt Q4DA54, 1-478: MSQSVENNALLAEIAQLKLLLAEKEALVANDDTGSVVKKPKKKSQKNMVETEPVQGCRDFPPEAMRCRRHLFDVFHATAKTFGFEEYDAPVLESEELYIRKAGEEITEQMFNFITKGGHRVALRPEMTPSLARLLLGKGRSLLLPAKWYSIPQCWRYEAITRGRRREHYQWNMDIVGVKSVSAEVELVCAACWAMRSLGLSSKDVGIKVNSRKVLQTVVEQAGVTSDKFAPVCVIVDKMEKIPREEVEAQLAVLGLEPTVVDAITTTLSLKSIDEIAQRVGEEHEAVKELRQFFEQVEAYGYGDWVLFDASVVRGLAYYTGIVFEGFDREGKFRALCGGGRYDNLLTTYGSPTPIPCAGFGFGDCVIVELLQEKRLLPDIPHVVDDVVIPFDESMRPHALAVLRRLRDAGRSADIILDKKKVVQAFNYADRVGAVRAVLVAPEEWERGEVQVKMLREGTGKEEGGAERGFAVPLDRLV
UniProt Q8IDJ8, 1-583: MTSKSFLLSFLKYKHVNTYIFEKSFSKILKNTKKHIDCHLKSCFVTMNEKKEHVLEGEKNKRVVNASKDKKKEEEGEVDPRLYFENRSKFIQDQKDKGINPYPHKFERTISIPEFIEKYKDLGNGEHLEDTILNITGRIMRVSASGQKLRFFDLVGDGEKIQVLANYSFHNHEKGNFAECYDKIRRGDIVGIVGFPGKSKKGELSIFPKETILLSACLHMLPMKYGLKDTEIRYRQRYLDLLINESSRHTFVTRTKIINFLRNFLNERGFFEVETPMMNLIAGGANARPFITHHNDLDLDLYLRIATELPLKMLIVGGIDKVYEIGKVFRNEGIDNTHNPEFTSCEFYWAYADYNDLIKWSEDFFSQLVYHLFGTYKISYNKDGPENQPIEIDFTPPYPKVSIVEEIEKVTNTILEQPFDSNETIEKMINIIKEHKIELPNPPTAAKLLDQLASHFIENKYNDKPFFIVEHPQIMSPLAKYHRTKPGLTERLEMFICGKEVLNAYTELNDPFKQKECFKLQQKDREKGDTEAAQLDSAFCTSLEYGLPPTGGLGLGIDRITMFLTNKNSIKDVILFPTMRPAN
UniProt P9WNZ1, whole entry: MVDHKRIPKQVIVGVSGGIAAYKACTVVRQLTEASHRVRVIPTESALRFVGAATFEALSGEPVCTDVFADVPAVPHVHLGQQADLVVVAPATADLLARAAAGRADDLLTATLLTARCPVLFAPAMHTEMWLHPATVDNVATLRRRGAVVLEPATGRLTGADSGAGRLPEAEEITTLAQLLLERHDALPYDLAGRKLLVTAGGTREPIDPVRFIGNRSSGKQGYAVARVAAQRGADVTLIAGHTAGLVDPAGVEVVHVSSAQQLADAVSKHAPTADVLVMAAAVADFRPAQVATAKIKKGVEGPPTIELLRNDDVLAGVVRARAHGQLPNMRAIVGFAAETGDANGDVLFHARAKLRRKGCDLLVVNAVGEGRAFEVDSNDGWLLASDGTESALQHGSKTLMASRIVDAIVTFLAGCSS
UniProt I6X8D2, whole entry: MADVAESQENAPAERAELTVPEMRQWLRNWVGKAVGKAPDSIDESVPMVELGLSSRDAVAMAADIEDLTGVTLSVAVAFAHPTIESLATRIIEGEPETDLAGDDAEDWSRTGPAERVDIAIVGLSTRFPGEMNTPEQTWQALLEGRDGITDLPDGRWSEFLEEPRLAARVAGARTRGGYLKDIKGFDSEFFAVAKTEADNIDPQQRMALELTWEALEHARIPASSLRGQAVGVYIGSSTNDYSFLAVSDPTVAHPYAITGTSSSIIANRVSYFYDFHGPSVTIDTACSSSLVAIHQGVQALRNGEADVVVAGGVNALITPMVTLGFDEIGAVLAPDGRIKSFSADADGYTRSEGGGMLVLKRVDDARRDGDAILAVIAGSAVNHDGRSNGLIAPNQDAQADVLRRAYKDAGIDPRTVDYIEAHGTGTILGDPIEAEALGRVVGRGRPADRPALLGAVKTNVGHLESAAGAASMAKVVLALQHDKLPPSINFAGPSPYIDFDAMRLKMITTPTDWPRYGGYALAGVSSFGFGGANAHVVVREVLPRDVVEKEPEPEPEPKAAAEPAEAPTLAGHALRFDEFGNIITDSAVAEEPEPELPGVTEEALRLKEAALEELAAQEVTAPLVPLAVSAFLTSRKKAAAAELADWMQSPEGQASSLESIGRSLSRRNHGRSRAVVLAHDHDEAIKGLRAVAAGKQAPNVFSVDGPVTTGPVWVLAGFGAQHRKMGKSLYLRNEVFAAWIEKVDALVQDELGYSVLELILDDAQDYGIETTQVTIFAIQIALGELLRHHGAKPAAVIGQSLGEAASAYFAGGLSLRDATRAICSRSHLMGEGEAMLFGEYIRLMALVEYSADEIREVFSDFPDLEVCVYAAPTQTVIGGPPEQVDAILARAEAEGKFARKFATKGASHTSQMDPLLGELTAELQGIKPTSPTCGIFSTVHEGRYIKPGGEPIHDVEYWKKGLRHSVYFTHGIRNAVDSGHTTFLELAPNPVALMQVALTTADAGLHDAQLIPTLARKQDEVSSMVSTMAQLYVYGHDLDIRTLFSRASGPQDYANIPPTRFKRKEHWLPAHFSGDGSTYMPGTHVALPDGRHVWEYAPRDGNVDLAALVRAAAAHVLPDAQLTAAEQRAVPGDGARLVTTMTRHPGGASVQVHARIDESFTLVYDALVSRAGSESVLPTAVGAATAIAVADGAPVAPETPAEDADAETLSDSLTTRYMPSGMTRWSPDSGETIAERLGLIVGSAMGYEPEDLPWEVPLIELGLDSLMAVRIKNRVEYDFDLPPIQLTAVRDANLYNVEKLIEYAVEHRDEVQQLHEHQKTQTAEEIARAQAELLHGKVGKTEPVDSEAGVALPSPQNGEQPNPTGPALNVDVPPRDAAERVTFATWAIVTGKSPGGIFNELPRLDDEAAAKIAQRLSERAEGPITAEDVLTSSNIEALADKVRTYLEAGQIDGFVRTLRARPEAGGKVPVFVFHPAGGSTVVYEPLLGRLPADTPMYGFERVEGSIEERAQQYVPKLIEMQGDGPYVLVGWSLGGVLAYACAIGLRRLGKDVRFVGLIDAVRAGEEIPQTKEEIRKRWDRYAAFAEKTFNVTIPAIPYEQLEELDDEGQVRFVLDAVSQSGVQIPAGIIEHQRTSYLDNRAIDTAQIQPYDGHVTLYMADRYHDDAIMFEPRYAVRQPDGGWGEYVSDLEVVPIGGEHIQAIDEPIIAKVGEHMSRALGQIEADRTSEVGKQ

Values are the deposited “Percent Effect”, in %.
How 0% and 100% were set is not recorded. Most values in the screen are low, and negative values occur.
This is an unselected part of the compounds tested.
Two or more numbers in one place are separate tests of the same structure; such repeats can differ widely.
A dash means the value is not listed here; it may have been measured.

ClpP1P2: 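ClpP1P2, Mycobacterium tuberculosis (UniProt P9WPC5 and UniProt P9WPC3). Protease assay of ClpP1P2, read by the AMC dye that it sets free. Tested at 50 µM. Higher reads as stronger inhibition, judged from the few compounds that gave an IC50. Most other retested compounds had strongly negative values. Size under these conditions: about 69,000 compounds, about 10 of them at 50% or above in at least one test.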
TcHisRS: 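Enzyme assay of histidyl-tRNA synthetase; the read-out is not stated. Target: Histidine-tRNA ligase, Trypanosoma cruzi CL Brener (UniProt Q4DA54). Concentration: 30 µM. The record gives no direction; compounds that gave an IC50 in retests scored well above the rest, so higher reads as stronger inhibition. Size under these conditions: about 69,000 compounds, about 31 of them at 50% or above in at least one test.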
PfKRS1: 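Enzyme assay of the cytosolic lysyl-tRNA synthetase in 384-well plates, read by luminescence. Target: Lysine-tRNA ligase, Plasmodium falciparum 3D7 (UniProt Q8IDJ8). Tested at 30 µM. Direction is inferred from only a few compounds that gave an IC50; most scored high, so higher reads as stronger inhibition. Of about 69,000 compounds tested this way, about 49 (0.071%) reached 50% or more in at least one test.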
CoaBC: 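Coenzyme A biosynthesis protein CoaBC, Mycobacterium tuberculosis (UniProt P9WNZ1). Enzyme assay of CoaBC with a phosphate dye (Biomol Green) read at 650 nm. Compounds at 30 µM. Higher reads as stronger inhibition, judged from the few compounds that gave an IC50. Most strong results did not repeat in a second test. About 67,000 compounds were tested under these conditions; 0.06% (about 40) showed 50% or more at least once.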
Leishmania in macrophages: 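Cell assay of Leishmania donovani living inside macrophages; the read-out is not stated. Tested at 30 µM. Direction is inferred from retests: higher values go with stronger inhibition. Size under these conditions: about 69,000 compounds, about 1,000 of them at 50% or above in at least one test.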
Pks13 thioesterase: 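Enzyme assay of the thioesterase domain of polyketide synthase 13; the read-out is not stated. Target: Polyketide synthase Pks13, Mycobacterium tuberculosis (UniProt I6X8D2). Concentration: 30 µM. Higher reads as stronger inhibition (inferred from which compounds were picked for retests). About 67,000 compounds were tested under these conditions; 0.46% (about 300) showed 50% or more at least once.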

structure,ClpP1P2,TcHisRS,PfKRS1,CoaBC,Leishmania in macrophages,Pks13 thioesterase
O=C(O)C(F)(F)F.[H][C@@]12CCCO[C@]1([H])[C@H](N(C)Cc1ccco1)CN(C(=O)N(C)C)C2,-,-,-,-,32.14,-
COc1ccc(CN2CCC3(CC2)NC(=O)CC3c2cnn(C)c2)cc1.O=C(O)C(F)(F)F (stereo not shown),-,-,-,-,15.66,-
Cc1noc(C)c1CC(=O)N1CCCN(Cc2cscn2)CC1,-18.46,5.917,-1.868,8.999,12.91,-24.68
Cc1ccc(-c2nc(CN3CCc4nn(C)c(=O)cc4C3)co2)cc1,12.58,-2.256,5.9,2.728,21.01,-3.049
CN1CCC2(CC1)CN(C(=O)c1cccc3cccnc13)CCN2C,3.504,4.459,-1.576,-,10.97,-31.62
COc1ccc(CNC(=O)C2(C#N)CCCC2)cc1,4.343,2.439,0.8326,0.4219,3.864,-8.773
CC(C)CCC(C)NC(=O)c1ccc(OCC(N)=O)cc1 (stereo not shown),5.606,-13.33,-1.249,-5.757,7.927,-10.06
COCCN1C(=O)C[C@H]2[C@H]1CCN2Cc1cccc(C#N)c1,7.031,3.825,3.897,4.145,-,-24.18
CC(C)NC(=O)Nc1ccc(-c2nc3c([nH]2)CCNC3)cc1,1.689,10.71,2.316,3.186,9.291,-18.17
COCCn1cc2c(n1)C(CNCc1ccco1)OCC2.O=C(O)C(F)(F)F.O=C(O)C(F)(F)F (stereo not shown),-,-,-,-,-1.1,-
O=C1CC(Nc2ccc3nccnc3n2)CN1c1ccccc1 (stereo not shown),-127.8,2.521,2.119,-2.823,12.37,4.412
Cc1nnc(CN2CCCC2c2cccc(Br)c2)o1 (stereo not shown),-8.946,11.76,4.35,0.9828,6.597,-
Cc1cc(N2CCN(c3nc4ccccc4cc3CO)CC2)nc(C)n1,-5.8,0.5435,-2.636,7.851,30.59,-34.1
CN(Cc1ccc2c(c1)OCCO2)C(=O)Cn1cccnc1=O,8.377,-5.66,1.448,2.216,19.85,-16.16
OC1CCN(C2CCN(c3ccc(Cn4ccnc4)cn3)CC2)CC1,12.81,10.05,1.442,-6.149,61.02,-25.12
CN(C)Cc1cnc2n1CCN(C(=O)NCc1ccccc1)CC2,-1.47,7.595,9.141,-,-,-33.46
Cc1cc(S(=O)(=O)NCC(C)(C)N)c(F)cc1F,-7.31,8.911,1.143,3.641,-,-5.881
CCCC(C)N(C)C(=O)c1nc(S(C)(=O)=O)n2ccccc12 (stereo not shown),-15.48,4.985,-0.2744,2.632,7.299,-6.136
C=C(C)CN(c1cn[nH]c1)S(=O)(=O)c1cccc(C#N)c1,-0.1326,-1.724,4.361,-2.381,9.097,18.02
COCCNCC1(O)CCCN(Cc2ccc(F)c(F)c2)C1=O (stereo not shown),-27.93,5.83,3.734,1.523,36.88,4.22
COCCNC(=O)c1ccc(NCc2c(C)noc2C)cc1Cl,3.267,5.941,9.351,-3.767,15.15,-0.3754
COCC(=O)N1CCC2(CC1)CN(S(C)(=O)=O)Cc1ccccc1O2,-19.05,2.273,0.3699,0.5256,17.23,5.637
O=C(O)C(F)(F)F.O=C(O)C(F)(F)F.O=C(O)C(F)(F)F.O=C1NC2(CCN(Cc3cccnc3)CC2)CC1c1cccnc1 (stereo not shown),-,-,-,-,15.9,-
CCCOC1Sc2nnc(C)n2N=C1c1ccccc1 (stereo not shown),5.194,8.247,-1.143,-5.369,21.28,-7.91
c1cnnc(N2CCCC2CNc2ncnc3sccc23)c1 (stereo not shown),-10.49,8.451,1.164,1.654,32,-41.57
O=C(O)C(F)(F)F.O=C(O)C(F)(F)F.O=C(O)C(F)(F)F.O=C(O)C(F)(F)F.[H][C@@]12CN(Cc3cccnc3)C[C@]1([H])[C@@H](OC)CCN2Cc1cccc(C)n1,-,-,-,-,39.82,-
CCC(CC)(CNC(=O)OC(C)(C)C)NC(=O)C1CCCO1 (stereo not shown),-4.359,12.05,0.6787,0,19.76,-32.69
CC(=O)Nc1ccc(CNC(=O)CNCc2nnc(C)o2)cc1,4.487,2.469,4.504,2.086,10.56,18.92
COCCN1CCC(NC(=O)NCC2(c3ccccc3)CC2)C1 (stereo not shown),-8.081,3.093,3.281,1.222,22.63,-2.089
CC(C)(C)c1cc2ncn(CCCN3CCCCC3CO)c(=O)c2s1 (stereo not shown),-2.579,5.941,4.347,1.094,-10.08,-8.305
[H][C@]12CC[C@@]3(N=C(CC)N(C)C3=O)[C@@]1([H])CN(C(=O)Nc1ccccc1)C2,-,-,-,-,-26.4,-
COc1ccc(CNC(=O)c2ccc(=O)n(C)c2)cc1C,-4.591,1.266,2.827,-5.769,12.66,-5.336
Cc1csc(C2CCCCN2C(=O)CN(C)Cc2ccccc2)n1 (stereo not shown),-0.7882,3.383,3.823,3.916,32.66,-11.56
c1cnnc(N2CCCC2CNCc2nc(-c3ccoc3)no2)c1 (stereo not shown),-19.41,9.677,-0.5823,1.316,14.13,-33.64
Cc1nn(C)c(C)c1CCC(=O)Nc1cccn(C)c1=O,-4.763,5.263,5.026,-3.187,24.82,-4.002
c1ccc(CCCn2cc(-c3nc(CN4CCOCC4)no3)nn2)cc1,-0.6126,1.571,1.409,6.79,25.68,-17.82
CC(C)n1ccnc1CN1CCCN(C(=O)c2cnn(C)c2)CC1,-19.66,4.399,-0.8902,2.632,21,-13.98
COc1cccc(CC(=O)N2CCCC(c3n[nH]c4nccnc34)C2)c1 (stereo not shown),0.7104,3.191,1.427,1.716,7.846,2.7
Cc1nc(C)c(C)c(N(C)CCCc2nccn2C)n1,-12.04,0,19.75,0.216,5.138,-15.47
O=C(O)C(F)(F)F.[H][C@@]12CCN(CCOC)C[C@]1([H])[C@H](C(=O)N1CCCO1)CCO2,-,-,-,-,-4.675,-
O=S(=O)(c1cn[nH]c1)N1CCCC(O)(CN2CCOCC2)CC1 (stereo not shown),-19.71,5.085,2.354,2.179,2.737,1.889
COc1cc(N2CC[C@H](O)[C@@H]2Cc2cccnc2)ncn1,5.807,7.563,2.24,6.288,5.968,-20.22
COc1cc2c(cc1OC)CN(C(C(=O)O)c1c(C)nn(C)c1C)CC2 (stereo not shown),-2.01,-2.128,4.5,-1.606,3.435,-23.88
Cc1nc(CNC(=O)NC(C)c2ccc3c(c2)OCCCO3)cs1 (stereo not shown),3.433,3.097,5.569,3.738,12.87,-3.618
CCn1nc2c(cc1=O)CN(Cc1nc(N)c3ccccc3n1)CC2,-6.945,4.959,-1.449,5.757,30.57,-5.921
N#Cc1ncn(CC(=O)Nc2cc(Cl)ccc2F)n1,-5.048,4.959,3.876,-4.946,-35.34,-13.08
Cc1ccc(C(=O)N2CCN(Cc3cccs3)CC2)c(=O)[nH]1,-18.9,4.985,1.814,2.105,17.03,-41.42
CC(=O)c1ccc(-c2cnn(CC(=O)Nc3cc(C)nn3C)c2)nc1,-8.001,-1.818,3.082,0.2433,-5.231,-1.976
Nc1ncnc2c1ncn2[C@H]1CCN(Cc2ccsc2)CC[C@@H]1O,-10.67,12.09,4.192,1.942,9.087 and 8.021,6.029
CC(=O)N1CCCC2(C1)CN(C(=O)Cc1ccccc1)CCO2 (stereo not shown),2.454,3.922,2.821,4.25,24.3,0.04536
O=S(=O)(c1ccccc1)N1C(CN2CCOCC2)[C@]2(O)CC[C@H]1CC2 (stereo partly shown),0.9914,2.247,2.865,-2.663,-,-23.11
Cc1ccc(CN2CCC3(CC2)CCN(C(=O)c2cccnc2)C3)o1.O=C(O)C(F)(F)F,-,-,-,-,19.67,-
COc1ccc2nnc(CCC(=O)Nc3nc(C)c(C)s3)n2n1,0.07579,5.941,1.19,0,-45.12,-0.1267

The last 5 entries again:

- Nc1ncnc2c1ncn2[C@H]1CCN(Cc2ccsc2)CC[C@@H]1O | ClpP1P2: -10.67%; TcHisRS: 12.09%; PfKRS1: 4.192%; CoaBC: 1.942%; Leishmania in macrophages: 9.087% and 8.021%; Pks13 thioesterase: 6.029%
- CC(=O)N1CCCC2(C1)CN(C(=O)Cc1ccccc1)CCO2 (stereo not shown) | ClpP1P2: 2.454%; TcHisRS: 3.922%; PfKRS1: 2.821%; CoaBC: 4.25%; Leishmania in macrophages: 24.3%; Pks13 thioesterase: 0.04536%
- O=S(=O)(c1ccccc1)N1C(CN2CCOCC2)[C@]2(O)CC[C@H]1CC2 (stereo partly shown) | ClpP1P2: 0.9914%; TcHisRS: 2.247%; PfKRS1: 2.865%; CoaBC: -2.663%; Pks13 thioesterase: -23.11%
- Cc1ccc(CN2CCC3(CC2)CCN(C(=O)c2cccnc2)C3)o1.O=C(O)C(F)(F)F | Leishmania in macrophages: 19.67%
- COc1ccc2nnc(CCC(=O)Nc3nc(C)c(C)s3)n2n1 | ClpP1P2: 0.07579%; TcHisRS: 5.941%; PfKRS1: 1.19%; CoaBC: 0%; Leishmania in macrophages: -45.12%; Pks13 thioesterase: -0.1267%